Laboratory results taken from patent publication US8357733B2, “Processes for making silane, hydrophobated silica, silica masterbatch and rubber products” (Industrias Negromex, S.A. de C.V., priority 2008, dated 2013).

Assay: Attempt to hydrophobate silica with the silane and coagulate masterbatch
Settings: insoluble silane used to hydrophobate the silica

SMILES	Free silica in the coagulated masterbatch
CCO[Si](CCCSSCCC[Si](OCC)(OCC)OCC)(OCC)OCC [TESPD, bis-(3-triethoxysilylpropyl)-disulfide]	gross amounts of free silica
CO[Si](CCCSSCCC[Si](OC)(OC)OC)(OC)OC [TMSPD, bis-(3-trimethoxysilylpropyl)-disulfide]	gross amounts of free silica
